This passage reports NP40-soluble protein abundance results from the supplement of paper PMC6411743.

The chains behind the UniProt entries cited, without tags or fusion partners. Where a name states a change or a piece, a line headed by the entry shows the natural chain unless it says otherwise.
UniProt P57088: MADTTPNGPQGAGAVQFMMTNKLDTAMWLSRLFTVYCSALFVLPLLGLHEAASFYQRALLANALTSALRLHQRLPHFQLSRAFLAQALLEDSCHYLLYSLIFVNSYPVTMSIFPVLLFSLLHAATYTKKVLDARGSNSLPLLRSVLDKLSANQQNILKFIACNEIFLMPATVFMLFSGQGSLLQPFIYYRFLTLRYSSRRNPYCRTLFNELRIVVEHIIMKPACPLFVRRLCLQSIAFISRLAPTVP
UniProt P62316, whole entry: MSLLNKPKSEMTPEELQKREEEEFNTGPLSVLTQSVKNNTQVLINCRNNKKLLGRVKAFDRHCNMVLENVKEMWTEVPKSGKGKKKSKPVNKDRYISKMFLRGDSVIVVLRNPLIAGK
UniProt P55160: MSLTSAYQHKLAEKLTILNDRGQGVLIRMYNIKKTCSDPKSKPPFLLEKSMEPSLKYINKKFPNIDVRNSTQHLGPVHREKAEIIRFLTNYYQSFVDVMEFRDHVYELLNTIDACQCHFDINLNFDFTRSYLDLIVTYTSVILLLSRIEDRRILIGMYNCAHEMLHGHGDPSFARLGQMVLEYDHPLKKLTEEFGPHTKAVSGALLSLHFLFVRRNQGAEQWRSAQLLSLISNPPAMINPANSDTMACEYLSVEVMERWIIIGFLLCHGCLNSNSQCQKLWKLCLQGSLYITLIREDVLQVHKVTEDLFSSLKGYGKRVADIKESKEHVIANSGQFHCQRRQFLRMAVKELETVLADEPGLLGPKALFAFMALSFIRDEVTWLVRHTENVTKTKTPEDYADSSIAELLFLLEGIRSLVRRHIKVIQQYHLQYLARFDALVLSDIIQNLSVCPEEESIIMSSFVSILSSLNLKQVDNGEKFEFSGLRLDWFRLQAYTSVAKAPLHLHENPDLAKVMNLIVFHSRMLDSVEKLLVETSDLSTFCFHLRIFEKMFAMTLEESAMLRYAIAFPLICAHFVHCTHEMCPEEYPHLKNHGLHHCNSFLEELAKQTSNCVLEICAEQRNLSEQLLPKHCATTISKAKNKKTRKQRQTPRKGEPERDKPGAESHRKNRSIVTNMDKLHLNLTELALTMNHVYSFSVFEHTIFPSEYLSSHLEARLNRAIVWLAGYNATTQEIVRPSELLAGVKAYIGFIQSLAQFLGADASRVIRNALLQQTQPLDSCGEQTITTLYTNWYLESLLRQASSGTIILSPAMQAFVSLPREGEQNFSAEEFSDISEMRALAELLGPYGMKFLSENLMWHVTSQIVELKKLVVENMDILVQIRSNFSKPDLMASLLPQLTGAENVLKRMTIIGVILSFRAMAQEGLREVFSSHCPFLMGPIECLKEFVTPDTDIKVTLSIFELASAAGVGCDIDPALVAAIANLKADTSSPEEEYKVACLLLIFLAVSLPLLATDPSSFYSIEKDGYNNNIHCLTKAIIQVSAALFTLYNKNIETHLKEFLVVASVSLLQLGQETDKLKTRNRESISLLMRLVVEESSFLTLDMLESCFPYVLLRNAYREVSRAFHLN
UniProt P50750, whole entry: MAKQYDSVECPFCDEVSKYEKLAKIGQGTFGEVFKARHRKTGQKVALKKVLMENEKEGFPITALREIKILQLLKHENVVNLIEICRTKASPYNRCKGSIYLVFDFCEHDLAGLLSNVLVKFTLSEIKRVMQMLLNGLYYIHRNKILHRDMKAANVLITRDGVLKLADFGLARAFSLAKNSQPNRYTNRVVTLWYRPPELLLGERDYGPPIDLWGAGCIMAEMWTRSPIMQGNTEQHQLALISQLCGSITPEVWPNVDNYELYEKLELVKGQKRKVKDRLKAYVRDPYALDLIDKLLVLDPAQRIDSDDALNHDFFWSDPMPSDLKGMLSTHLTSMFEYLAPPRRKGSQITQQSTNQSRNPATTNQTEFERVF
UniProt P84022, whole entry, looked up: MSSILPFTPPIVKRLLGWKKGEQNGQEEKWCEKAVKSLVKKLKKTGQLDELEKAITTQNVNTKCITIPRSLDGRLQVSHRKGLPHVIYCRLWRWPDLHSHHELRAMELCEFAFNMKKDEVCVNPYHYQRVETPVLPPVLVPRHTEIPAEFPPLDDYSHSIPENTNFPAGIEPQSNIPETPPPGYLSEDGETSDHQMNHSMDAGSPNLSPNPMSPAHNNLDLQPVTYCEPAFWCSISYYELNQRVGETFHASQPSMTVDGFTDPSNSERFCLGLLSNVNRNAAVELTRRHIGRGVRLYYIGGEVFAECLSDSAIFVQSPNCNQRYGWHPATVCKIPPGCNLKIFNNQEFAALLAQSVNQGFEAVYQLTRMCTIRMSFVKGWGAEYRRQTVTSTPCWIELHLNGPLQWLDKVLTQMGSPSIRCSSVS
UniProt P56377: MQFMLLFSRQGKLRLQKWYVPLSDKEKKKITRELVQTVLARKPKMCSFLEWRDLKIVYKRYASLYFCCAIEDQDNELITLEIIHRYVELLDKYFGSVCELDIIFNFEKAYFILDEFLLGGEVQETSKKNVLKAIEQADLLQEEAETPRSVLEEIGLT
UniProt P56524: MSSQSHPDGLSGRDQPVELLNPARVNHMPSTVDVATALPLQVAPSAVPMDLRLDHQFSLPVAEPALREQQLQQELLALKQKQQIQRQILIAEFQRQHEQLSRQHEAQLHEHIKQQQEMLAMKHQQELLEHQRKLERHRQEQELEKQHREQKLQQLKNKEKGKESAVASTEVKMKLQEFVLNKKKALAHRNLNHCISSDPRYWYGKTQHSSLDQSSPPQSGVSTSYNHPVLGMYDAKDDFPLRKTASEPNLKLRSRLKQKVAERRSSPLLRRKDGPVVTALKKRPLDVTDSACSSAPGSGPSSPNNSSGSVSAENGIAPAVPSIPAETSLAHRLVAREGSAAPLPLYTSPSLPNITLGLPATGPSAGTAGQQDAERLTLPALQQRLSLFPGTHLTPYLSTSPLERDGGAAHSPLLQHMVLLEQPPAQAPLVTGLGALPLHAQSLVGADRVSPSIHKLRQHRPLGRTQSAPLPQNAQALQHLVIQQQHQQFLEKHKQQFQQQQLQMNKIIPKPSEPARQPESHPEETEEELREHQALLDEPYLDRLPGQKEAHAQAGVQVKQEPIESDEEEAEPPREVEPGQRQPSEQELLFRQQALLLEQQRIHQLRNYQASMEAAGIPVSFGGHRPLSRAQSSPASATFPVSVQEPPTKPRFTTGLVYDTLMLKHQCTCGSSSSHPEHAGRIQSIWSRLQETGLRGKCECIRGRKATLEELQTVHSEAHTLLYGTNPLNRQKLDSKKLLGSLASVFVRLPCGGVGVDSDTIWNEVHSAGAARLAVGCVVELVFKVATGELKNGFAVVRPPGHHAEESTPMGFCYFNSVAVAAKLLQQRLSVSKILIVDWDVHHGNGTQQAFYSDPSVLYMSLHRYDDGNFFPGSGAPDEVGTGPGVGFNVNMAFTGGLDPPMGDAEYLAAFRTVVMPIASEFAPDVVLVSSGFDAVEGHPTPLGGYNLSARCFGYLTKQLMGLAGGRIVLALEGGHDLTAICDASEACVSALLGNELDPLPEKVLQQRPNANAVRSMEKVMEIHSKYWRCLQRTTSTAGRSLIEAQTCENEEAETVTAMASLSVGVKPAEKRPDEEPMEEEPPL
UniProt P52306: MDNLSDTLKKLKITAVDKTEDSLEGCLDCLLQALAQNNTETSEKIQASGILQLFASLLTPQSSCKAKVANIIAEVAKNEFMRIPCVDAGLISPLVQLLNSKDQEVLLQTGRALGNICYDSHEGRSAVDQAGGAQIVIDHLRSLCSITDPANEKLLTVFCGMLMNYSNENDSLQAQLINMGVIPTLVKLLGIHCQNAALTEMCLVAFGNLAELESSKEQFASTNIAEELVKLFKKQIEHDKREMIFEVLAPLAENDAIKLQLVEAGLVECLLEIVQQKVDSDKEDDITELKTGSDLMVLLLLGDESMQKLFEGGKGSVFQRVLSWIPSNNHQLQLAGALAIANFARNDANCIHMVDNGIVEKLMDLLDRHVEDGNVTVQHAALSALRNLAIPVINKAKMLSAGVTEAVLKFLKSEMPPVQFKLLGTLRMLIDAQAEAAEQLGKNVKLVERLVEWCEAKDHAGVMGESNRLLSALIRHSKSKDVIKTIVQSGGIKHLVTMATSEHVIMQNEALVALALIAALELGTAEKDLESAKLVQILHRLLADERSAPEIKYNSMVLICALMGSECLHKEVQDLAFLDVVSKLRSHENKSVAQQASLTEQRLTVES
UniProt P50583: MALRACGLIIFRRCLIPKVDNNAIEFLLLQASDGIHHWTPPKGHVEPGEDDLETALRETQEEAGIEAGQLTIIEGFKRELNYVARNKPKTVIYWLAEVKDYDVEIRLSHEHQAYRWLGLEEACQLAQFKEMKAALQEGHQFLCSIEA
UniProt P63010: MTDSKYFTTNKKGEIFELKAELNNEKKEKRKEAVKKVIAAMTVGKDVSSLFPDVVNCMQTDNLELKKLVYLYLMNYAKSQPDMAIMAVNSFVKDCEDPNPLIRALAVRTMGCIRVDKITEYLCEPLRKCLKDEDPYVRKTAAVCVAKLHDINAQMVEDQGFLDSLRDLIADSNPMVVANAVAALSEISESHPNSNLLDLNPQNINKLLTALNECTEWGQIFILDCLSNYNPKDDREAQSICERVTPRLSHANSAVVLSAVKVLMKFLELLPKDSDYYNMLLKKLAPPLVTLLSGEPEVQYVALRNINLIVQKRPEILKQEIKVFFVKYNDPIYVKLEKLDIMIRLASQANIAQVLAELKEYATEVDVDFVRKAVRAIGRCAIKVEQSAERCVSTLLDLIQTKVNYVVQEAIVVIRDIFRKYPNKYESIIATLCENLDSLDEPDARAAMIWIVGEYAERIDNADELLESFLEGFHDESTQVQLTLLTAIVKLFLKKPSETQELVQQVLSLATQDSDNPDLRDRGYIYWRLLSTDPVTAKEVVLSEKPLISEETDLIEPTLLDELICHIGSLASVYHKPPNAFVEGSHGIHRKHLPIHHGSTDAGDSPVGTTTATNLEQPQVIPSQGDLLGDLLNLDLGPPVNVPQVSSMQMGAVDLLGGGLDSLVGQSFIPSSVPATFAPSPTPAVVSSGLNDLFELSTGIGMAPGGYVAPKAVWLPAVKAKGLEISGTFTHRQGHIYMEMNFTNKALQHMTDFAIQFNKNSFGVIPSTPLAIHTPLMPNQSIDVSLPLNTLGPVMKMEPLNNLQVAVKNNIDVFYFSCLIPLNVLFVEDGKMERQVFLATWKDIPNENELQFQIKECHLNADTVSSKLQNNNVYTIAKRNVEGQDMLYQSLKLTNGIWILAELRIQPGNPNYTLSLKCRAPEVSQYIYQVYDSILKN
UniProt P51649: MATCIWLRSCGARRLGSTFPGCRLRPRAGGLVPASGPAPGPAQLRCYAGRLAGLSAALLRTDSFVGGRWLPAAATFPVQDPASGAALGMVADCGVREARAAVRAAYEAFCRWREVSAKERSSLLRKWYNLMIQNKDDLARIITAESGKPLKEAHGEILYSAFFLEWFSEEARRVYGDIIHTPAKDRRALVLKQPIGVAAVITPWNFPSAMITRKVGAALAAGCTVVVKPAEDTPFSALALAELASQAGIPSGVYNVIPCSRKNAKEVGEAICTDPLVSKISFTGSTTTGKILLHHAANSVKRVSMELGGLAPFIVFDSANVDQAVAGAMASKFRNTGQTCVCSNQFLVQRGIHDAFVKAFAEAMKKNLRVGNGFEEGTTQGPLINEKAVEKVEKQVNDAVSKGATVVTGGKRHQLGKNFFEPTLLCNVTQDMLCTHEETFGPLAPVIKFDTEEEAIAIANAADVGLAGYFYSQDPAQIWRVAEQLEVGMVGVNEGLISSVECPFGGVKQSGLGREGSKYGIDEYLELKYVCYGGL
UniProt P61088: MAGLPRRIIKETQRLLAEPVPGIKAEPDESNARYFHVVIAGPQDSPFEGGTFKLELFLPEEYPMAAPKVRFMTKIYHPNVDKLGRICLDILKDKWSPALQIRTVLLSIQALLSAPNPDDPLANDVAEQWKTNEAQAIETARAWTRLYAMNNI
UniProt P61081: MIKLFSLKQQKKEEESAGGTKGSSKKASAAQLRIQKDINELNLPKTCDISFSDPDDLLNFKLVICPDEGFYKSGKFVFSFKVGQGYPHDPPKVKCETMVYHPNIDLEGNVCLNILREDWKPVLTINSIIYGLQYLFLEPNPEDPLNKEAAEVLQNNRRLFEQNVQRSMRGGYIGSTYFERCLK

± gives the standard deviation of the averaged measurements. This is one part of the list.

Compound in the assay: Nc1nc2c(ncn2[C@@H]2O[C@H](COP(=O)(O)OP(=O)(O)OP(=O)(O)O)[C@@H](O)[C@H]2O)c(=O)[nH]1 [guanosine triphosphate]
Briefly: NP40-soluble protein abundance relative to vehicle (solubility fold change) (ratio); higher = more soluble protein in presence of GTP. The procedure, abridged: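 In three independent experiments, Jurkat crude lysate made by Dounce homogenisation was treated for 10 min at room temperature and then 3 min at 37 °C with eight concentrations ranging from 0.1 to 10 mM. It was then solubilised with 0.8% NP40 plus benzonase for 60 min at 4 °C and ultracentrifuged. The supernatant was TMT-labelled for LC-MS/MS, and each value is the fold change against the detergent-processed vehicle for the same replicate, using vsn-normalised intensities.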

On to UniProt P62277, for which the NP40-soluble protein abundance was found to be 0.945 ± 0.11 (concentration: 0.1mM); 0.964 ± 0.11 (concentration: 0.5mM); 1.03 ± 0.22 (concentration: 1mM); 1.02 ± 0.3 (concentration: 2mM); 0.802 ± 0.25 (concentration: 4mM); 0.796 ± 0.27 (concentration: 6mM). In addition, the NP40-soluble protein abundance runs as follows: (concentration: 8mM) 0.626 ± 0.17; (concentration: 10mM) 0.816 ± 0.29.
As to TMEM33 (UniProt P57088), the NP40-soluble protein abundance runs as follows: (concentration: 0.1mM) 1.01 ± 0.12; (concentration: 0.5mM) 0.998 ± 0.095; (concentration: 1mM) 0.844 ± 0.048; (concentration: 2mM) 0.939 ± 0.21; (concentration: 4mM) 0.947 ± 0.18; (concentration: 6mM) 0.845 ± 0.1. Also, the NP40-soluble protein abundance came to 0.818 ± 0.089 (concentration: 8mM) and 0.883 ± 0.12 (concentration: 10mM).
For the target UniProt P62316 and related entries, the NP40-soluble protein abundance worked out at 0.884 ± 0.064 (concentration: 0.1mM); 0.91 ± 0.039 (concentration: 0.5mM); 1.1 ± 0.12 (concentration: 1mM); 1.17 ± 0.1 (concentration: 2mM); 1.2 ± 0.15 (concentration: 4mM); 1.31 ± 0.14 (concentration: 6mM). For the same target, the NP40-soluble protein abundance is, setting by setting: (concentration: 8mM) 1.23 ± 0.089; (concentration: 10mM) 1.45 ± 0.22.
In the case of UniProt P63000 and related entries, the NP40-soluble protein abundance worked out at 0.955 ± 0.12 (concentration: 0.1mM); 0.991 ± 0.15 (concentration: 0.5mM); 0.962 ± 0.078 (concentration: 1mM); 1.03 ± 0.064 (concentration: 2mM); 1.03 ± 0.054 (concentration: 4mM); 0.966 ± 0.088 (concentration: 6mM). The NP40-soluble protein abundance came out at 1 ± 0.1 (concentration: 8mM) and 1.09 ± 0.07 (concentration: 10mM).
Consider NCKAP1L (UniProt P55160), for which the NP40-soluble protein abundance was 1.06 ± 0.031 (concentration: 0.1mM); 1.1 ± 0.076 (concentration: 0.5mM); 0.996 ± 0.067 (concentration: 1mM); 1.03 ± 0.1 (concentration: 2mM); 0.995 ± 0.082 (concentration: 4mM); 0.991 ± 0.083 (concentration: 6mM). In addition, the NP40-soluble protein abundance runs as follows: (concentration: 8mM) 0.957 ± 0.044; (concentration: 10mM) 0.913 ± 0.076.
Consider UniProt P50750 and related entries, for which the NP40-soluble protein abundance stood at 1.07 ± 0.027 (concentration: 0.1mM); 1.11 ± 0.069 (concentration: 0.5mM); 1.07 ± 0.039 (concentration: 1mM); 1.2 ± 0.1 (concentration: 2mM); 1.35 ± 0.11 (concentration: 4mM); 1.4 ± 0.11 (concentration: 6mM). In addition, the NP40-soluble protein abundance (concentration: 8mM) was found to be 1.47 ± 0.06 and the NP40-soluble protein abundance (concentration: 10mM) was 1.54 ± 0.097.
For the target UniProt P84022, the NP40-soluble protein abundance by setting is: (concentration: 0.1mM) 1.0241 ± 0.00028; (concentration: 0.5mM) 1.04 ± 0.099; (concentration: 1mM) 0.965 ± 0.021; (concentration: 2mM) 1.02 ± 0.022; (concentration: 4mM) 1.03 ± 0.015; (concentration: 6mM) 1.04 ± 0.038. Besides, the NP40-soluble protein abundance reads like this: (concentration: 8mM) 1.012 ± 0.0063; (concentration: 10mM) 0.953 ± 0.023.
In the case of AP1S2 (UniProt P56377), the NP40-soluble protein abundance runs as follows: (concentration: 0.1mM) 0.952 ± 0.21; (concentration: 0.5mM) 1.06 ± 0.11; (concentration: 1mM) 1.05 ± 0.24; (concentration: 2mM) 1.12 ± 0.25; (concentration: 4mM) 1.29 ± 0.21; (concentration: 6mM) 1.15 ± 0.15. Besides, the NP40-soluble protein abundance (concentration: 8mM) worked out at 1.16 ± 0.13 and the NP40-soluble protein abundance (concentration: 10mM) came to 1.2 ± 0.026.
As to HDAC4 (UniProt P56524), the NP40-soluble protein abundance stood at 0.991 ± 0.11 (concentration: 0.1mM); 0.926 ± 0.07 (concentration: 0.5mM); 0.972 ± 0.098 (concentration: 1mM); 0.952 ± 0.069 (concentration: 2mM); 0.975 ± 0.11 (concentration: 4mM); 0.943 ± 0.1 (concentration: 6mM). In addition, the NP40-soluble protein abundance (concentration: 8mM) came to 0.988 ± 0.097 and the NP40-soluble protein abundance (concentration: 10mM) came to 0.969 ± 0.075.
Take UniProt P52306 and related entries: the NP40-soluble protein abundance (concentration: 0.1mM) came out at 0.996 ± 0.017; the NP40-soluble protein abundance (concentration: 0.5mM) was 0.983 ± 0.02; the NP40-soluble protein abundance (concentration: 1mM) is 0.916 ± 0.014; the NP40-soluble protein abundance (concentration: 2mM) was 0.914 ± 0.043; the NP40-soluble protein abundance (concentration: 4mM) turned out to be 0.882 ± 0.045; the NP40-soluble protein abundance (concentration: 6mM) is 0.897 ± 0.02. Besides, the NP40-soluble protein abundance is, setting by setting: (concentration: 8mM) 0.889 ± 0.022; (concentration: 10mM) 0.874 ± 0.035.
For the target UniProt P62263, the NP40-soluble protein abundance by setting is: (concentration: 0.1mM) 1 ± 0.06; (concentration: 0.5mM) 1 ± 0.011; (concentration: 1mM) 1.07 ± 0.032; (concentration: 2mM) 0.994 ± 0.11; (concentration: 4mM) 0.935 ± 0.15; (concentration: 6mM) 0.887 ± 0.15. In addition, the NP40-soluble protein abundance runs as follows: (concentration: 8mM) 0.875 ± 0.16; (concentration: 10mM) 0.911 ± 0.2.
On to NUDT2 (UniProt P50583), for which the NP40-soluble protein abundance (concentration: 0.1mM) was determined as 0.93 ± 0.17; the NP40-soluble protein abundance (concentration: 0.5mM) was determined as 0.902 ± 0.14; the NP40-soluble protein abundance (concentration: 1mM) amounted to 0.884 ± 0.15; the NP40-soluble protein abundance (concentration: 2mM) is 0.877 ± 0.15; the NP40-soluble protein abundance (concentration: 4mM) worked out at 1.8 ± 0.49; the NP40-soluble protein abundance (concentration: 6mM) worked out at 1.24 ± 0.23. For the same target, the NP40-soluble protein abundance (concentration: 8mM) worked out at 1.48 ± 0.34 and the NP40-soluble protein abundance (concentration: 10mM) is 1.16 ± 0.26.
With UniProt P63010 and related entries, the NP40-soluble protein abundance was found to be 0.986 ± 0.014 (concentration: 0.1mM); 1.07 ± 0.047 (concentration: 0.5mM); 0.996 ± 0.021 (concentration: 1mM); 1.01 ± 0.014 (concentration: 2mM); 0.965 ± 0.02 (concentration: 4mM); 1.03 ± 0.032 (concentration: 6mM). In addition, the NP40-soluble protein abundance runs as follows: (concentration: 8mM) 0.998 ± 0.012; (concentration: 10mM) 1.03 ± 0.065.
Consider UniProt P51649 and related entries, for which the NP40-soluble protein abundance was 1.02 ± 0.03 (concentration: 0.1mM); 1.03 ± 0.026 (concentration: 0.5mM); 0.967 ± 0.014 (concentration: 1mM); 0.965 ± 0.03 (concentration: 2mM); 0.946 ± 0.031 (concentration: 4mM); 0.938 ± 0.038 (concentration: 6mM). Further, the NP40-soluble protein abundance by setting is: (concentration: 8mM) 0.9406 ± 0.0074; (concentration: 10mM) 0.906 ± 0.031.
Take UniProt P61088: the NP40-soluble protein abundance by setting is: (concentration: 0.1mM) 0.948 ± 0.023; (concentration: 0.5mM) 0.926 ± 0.043; (concentration: 1mM) 0.956 ± 0.048; (concentration: 2mM) 0.923 ± 0.027; (concentration: 4mM) 0.904 ± 0.024; (concentration: 6mM) 0.904 ± 0.05. Further, the NP40-soluble protein abundance by setting is: (concentration: 8mM) 0.827 ± 0.11; (concentration: 10mM) 0.874 ± 0.078.
Take UniProt P61247 and related entries: the NP40-soluble protein abundance by setting is: (concentration: 0.1mM) 1 ± 0.064; (concentration: 0.5mM) 0.99 ± 0.07; (concentration: 1mM) 1.05 ± 0.17; (concentration: 2mM) 0.975 ± 0.2; (concentration: 4mM) 0.935 ± 0.27; (concentration: 6mM) 0.909 ± 0.27. Further, the NP40-soluble protein abundance came to 0.831 ± 0.25 (concentration: 8mM) and 0.905 ± 0.3 (concentration: 10mM).
Consider UniProt P61081, for which the NP40-soluble protein abundance by setting is: (concentration: 0.1mM) 0.968 ± 0.033; (concentration: 0.5mM) 0.963 ± 0.017; (concentration: 1mM) 0.929 ± 0.043; (concentration: 2mM) 0.879 ± 0.049; (concentration: 4mM) 0.87 ± 0.06; (concentration: 6mM) 0.884 ± 0.067. The NP40-soluble protein abundance (concentration: 8mM) was 0.884 ± 0.046 and the NP40-soluble protein abundance (concentration: 10mM) came to 0.861 ± 0.058.
